Measured values taken from PubChem BioAssay (EPA / NIEHS).
Inconclusive means that the source gave no clear call. Such entries were picked first, then a sample of the others. A potency beside an inconclusive call is a rough fit, not a confirmed value. The source made the active and inactive calls. Rule for the calls: active = hit-call score of the fitted dose curve at least 0.9, where 1 is the maximum; inconclusive = response in the unintended direction; inactive = score below 0.9.

Test system: not listed separately
Experiment: VALA_TUBHUV_Agonist_TubuleLength: VALA Sciences human Umbilical Vein Endothelial Tubule Formation (TUBHUV) Agonism Assay (AID 2284337)
Method: VALA_TUBHUV_Agonist is a cell-based, multiplexed assay that uses human umbilical vein endothelial cells (HUVEC). Measurements were taken 72 hours after chemical dosing in a 96-well plate.VALA_TUBHUV_Agonist_TubuleLength is the one of two assay components measured from the VALA_TUBHUV_Agonist assay. It is designed to make measurements of tubulogenesis, a form of morphology reporter, as detected with fluorescence intensity signals by HCS Fluorescent Imaging technology. This VALA_TUBHUV1 assay was designed to detect chemical activation of tubulogenesis, i.e. agonism.Data from the assay component VALA_TUBHUV_Agonist_TubuleLength was analyzed at the endpoint, VALA_TUBHUV_Agonist_TubuleLength, in the positive analysis fitting direction relative to DMSO as the negative control and baseline of activity. Using a type of morphology reporter, gain-of-signal activity can be used to understand developmental effects. To generalize the intended target to other relatable targets, this assay endpoint is annotated to the neurodevelopment intended target family, where the subfamily is tubulogenesis.
[…]

| Compound | outcome | AC50 |
| --- | --- | --- |
| Cn1cc[nH]c1=S | inactive |  |
| CCCCC(CC)COC(=O)CC(C(=O)OCC(CC)CCCC)S(=O)(=O)O (stereo not drawn) |  | active: 14900 nM |
| CCCCCCCCCCCCc1ccccc1S(=O)(=O)O |  | active: 15600 nM |
| CCCCC(CC)COP(=O)(OCC(CC)CCCC)OCC(CC)CCCC (stereo not drawn) | inactive |  |
| CCN(CC)C(=S)SSC(=S)N(CC)CC | inactive |  |
| O=C1OC(c2ccc(O)cc2)(c2ccc(O)cc2)c2ccccc21 |  | inconclusive: 29100 nM |

Quoted from the listing:
Entry of Cn1cc[nH]c1=S under outcome: inactive
Entry of CCCCC(CC)COP(=O)(OCC(CC)CCCC)OCC(CC)CCCC (stereo not drawn) under outcome: inactive

Test system: not listed separately
Experiment: CCTE_Mundy_HCI_iCellGluta_NOG_NeuronCount: CCTE's Neurite Outgrowth Assay in iCellGluta cells for Neuron Count, Mundy Lab (AID 2284340);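 note: cells fixed about 48 h after compound addition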
How it was run: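 Neuron count read by automated high-content imaging of Hoechst 33342 and betaIII-tubulin/Alexa Fluor-488 labelling in human iPSC glutamatergic neurons. Activity fitted relative to DMSO.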

| Compound | outcome | AC50 |
| --- | --- | --- |
| O=C(O)C(F)(F)C(F)(F)C(F)(F)OC(F)(F)F | inactive |  |
| FC(F)(F)C(F)(F)C(F)(F)C(F)(F)C(F)(F)C(F)(F)I |  | inconclusive: 0.205 nM |
| OC[C@@H](O)[C@@H](O)[C@H](O)[C@H](O)CO |  | inconclusive: 2.29 nM |
| CC(CCl)OP(=O)(OC(C)CCl)OC(C)CCl (stereo not drawn) |  | inconclusive: 30.6 nM |

Test system: not listed separately
Experiment: CCTE_Mundy_HCI_iCellGluta_NOG_NeuriteCount: CCTE's Neurite Outgrowth Assay in iCellGluta cells for Neurite Count, Mundy Lab (AID 2284342);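 note: chemical exposure about 48 hours starting 2 hours after plating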
Method: CCTE_Mundy_HCI_iCellGluta_NOG is a multiplexed, cell-based-readout assay that uses iCell GlutaNeurons from FUJIFILM Cellular Dynamics, Inc. (FCDI), human glutamatergic enriched neurons derived from induced pluripotent stem (iPS) cells, with measurements taken at 50.33 hours after chemical dosing in a microplate: 96-well plate.CCTE_Mundy_HCI_iCellGluta_NOG_NeuriteCount is one of four components of the CCTE_Mundy_HCI_iCellGluta_NOG assay. It measures neurite outgrowth related to number of neurites using High Content Imaging of fluorescently labelled markers.Data from the assay component CCTE_Mundy_HCI_iCellGluta_NOG_NeuriteCount was analyzed at the endpoint CCTE_Mundy_HCI_iCellGluta_NOG_NeuriteCount in the positive analysis fitting direction relative to DMSO as the negative control and baseline of activity. Using a type of morphology reporter, loss-of-signal activity can be used to understand developmental effects.
Exposure starts 2 hours post-plating by adding 10 ul of the working solution to 90 ul of media in the wells for a 1/10 dilution. Forty-eight hours after chemical treatment cells are fixed by direct addition of 100 ul of warm (37C) Dulbecco's phosphate buffered saline (DPBS) fixative solution containing 8% paraformaldehyde, 8% sucrose, and 0.1% of 3 mg/ml Hoechst 33342 into each well. Primary antibodies are prepared by dilution in Immunocytochemical Staining Buffer (ISB), 10X Dulbecco's PBS, 0.1% Saponin, 5% Bovine Serum Albumin, 0.5% NaN3 (Sodium Azide) and betaIII-tubulin (rabbit anti-betaIII-tubulin, 1:800) followed by Alexa Fluor-488 secondary (1:500) to label neuronal cell bodies and neurites. A Cellomics ArrayScan VTi HCS Reader is used for automated image acquisition and analysis of neurite outgrowth.

| Compound | AC50 | outcome |
| --- | --- | --- |
| N#Cc1ccc(CC(=NNC(=O)Nc2ccc(OC(F)(F)F)cc2)c2cccc(C(F)(F)F)c2)cc1 | inconclusive: 15000 nM |  |
| NC(=O)C(F)(F)C(F)(F)C(F)(F)C(F)(F)C(N)=O |  | inactive |
| FC(F)(F)C(F)(F)C(F)(F)C(F)(F)C(F)(F)C(F)(F)I |  | inactive |

Test system: SERPINA7 (gene 6906)
Experiment: CCTE_GLTED_hTBG: CCTE's human Thyroxine-binding Globulin (TBG) Inhibition Assay, Great Lakes Toxicology and Ecology Division (GLTED) Lab (AID 2284343);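 note: active chemicals lower fluorescence versus DMSO baseline by displacing probe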
How it was run: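 Cell-free binding assay in which human TBG is incubated with test chemical for 2 hours and displacement of the fluorescent probe ANSA is read at 380 nm excitation/475 nm emission. Activity is fitted against DMSO as the negative control.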

| Compound | AC50 | outcome |
| --- | --- | --- |
| O=S(=O)(O)c1ccc(N=Nc2c(O)ccc3cc(S(=O)(=O)O)ccc23)cc1 | inconclusive: 1.6 nM |  |
| C=C[Si]1(C)O[Si](C)(C=C)O[Si](C)(C=C)O[Si](C)(C=C)O1 (stereo not drawn) |  | inactive |
| CC(C)(C)c1ccc(O)c(C(C)(C)C)c1 | inconclusive: 6.67 nM |  |
| C=CC(=O)OCC(F)(F)C(F)(F)C(F)(F)C(F)(F)COC(=O)C=C | active: 18200 nM |  |
| O=C(OCc1ccccc1)c1ccccc1 | inconclusive: 0.775 nM |  |

Test system: SRY-box transcription factor 2 (SOX2) Protein Expression, Deisenroth Lab, SOX2 (gene 6657)
Experiment: CCTE_Deisenroth_DEVTOX-GLR_Endo_SOX2: CCTE's DevTox GLR-Endo Assay Evaluation of SRY-box transcription factor 2 (SOX2) Protein Expression, Deisenroth Lab (AID 2284412)
How it was run: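 RUES2-GLR human pluripotent cells were seeded 24 h, then differentiated 48 h with two chemical exposures 24 h apart. Cells were fixed, nuclei stained and imaged by high-content microscopy. Endpoint is %SOX2+ cells over cell count, minus 0.2% DMSO control; 10-point series 1 nM–200 uM.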

| Compound | AC50 | outcome |
| --- | --- | --- |
| COc1cccc2c1C(=O)c1c(O)c3c(c(O)c1C2=O)C[C@@](O)(C(=O)CO)C[C@@H]3O[C@H]1C[C@H](N)[C@H](O)[C@H](C)O1 | active: 2250 nM |  |
| NC(=O)NO | inconclusive: 0.0001 nM |  |
| O=C1NC(=O)C(c2ccccc2)(c2ccccc2)N1 | inconclusive: 55500 nM |  |
| Nc1ccn([C@@H]2O[C@H](CO)[C@@H](O)[C@@H]2O)c(=O)n1 | active: 4660 nM |  |
| NNC(=O)c1ccncc1 |  | inactive |
| OB(O)O | inconclusive: 0.000811 nM |  |
| Nc1nc2ncc(CNc3ccc(C(=O)N[C@@H](CCC(=O)O)C(=O)O)cc3)nc2c(=O)[nH]1 |  | inactive |
| CC(=O)Nc1ccc(O)cc1 | inconclusive: 0.0003 nM |  |
| O=C(O)c1cccnc1 | inconclusive: 0.000102 nM |  |
| O=C1CCC(N2C(=O)c3ccccc3C2=O)C(=O)N1 (stereo not drawn) | inconclusive: 105 nM |  |
